Data published in paper PMC11252818.
No constants are given. Whether binding was seen depends on the method and setting. Binding seen in cells or lysates may run through a third protein. Some results given as binding are weak or reduced against the parent protein; the word gives no strength. Where a sequence is shown, tags or fusion partners need not be part of it.

Chains of the proteins cited; added tags and fusions are not shown. Lines headed by an entry give the natural chain unless they say otherwise; changes in a name come on top.
UniProt Q9UPY5: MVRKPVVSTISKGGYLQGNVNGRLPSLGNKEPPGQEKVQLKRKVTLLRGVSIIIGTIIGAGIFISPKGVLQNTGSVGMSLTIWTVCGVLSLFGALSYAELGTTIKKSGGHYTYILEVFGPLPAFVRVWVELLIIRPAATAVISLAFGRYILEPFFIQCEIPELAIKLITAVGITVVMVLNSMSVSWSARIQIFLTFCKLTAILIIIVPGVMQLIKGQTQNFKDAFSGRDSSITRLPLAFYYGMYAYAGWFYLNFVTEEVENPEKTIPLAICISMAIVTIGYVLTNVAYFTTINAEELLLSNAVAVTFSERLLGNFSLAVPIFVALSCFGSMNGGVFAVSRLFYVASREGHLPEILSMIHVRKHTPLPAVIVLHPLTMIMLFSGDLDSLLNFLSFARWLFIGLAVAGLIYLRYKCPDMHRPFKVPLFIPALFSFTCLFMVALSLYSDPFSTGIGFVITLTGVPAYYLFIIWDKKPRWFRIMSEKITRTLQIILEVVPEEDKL

Target: T1, FLAG-KCTD10 (wild type) (UniProt Q9H3F6)
T1 sequence: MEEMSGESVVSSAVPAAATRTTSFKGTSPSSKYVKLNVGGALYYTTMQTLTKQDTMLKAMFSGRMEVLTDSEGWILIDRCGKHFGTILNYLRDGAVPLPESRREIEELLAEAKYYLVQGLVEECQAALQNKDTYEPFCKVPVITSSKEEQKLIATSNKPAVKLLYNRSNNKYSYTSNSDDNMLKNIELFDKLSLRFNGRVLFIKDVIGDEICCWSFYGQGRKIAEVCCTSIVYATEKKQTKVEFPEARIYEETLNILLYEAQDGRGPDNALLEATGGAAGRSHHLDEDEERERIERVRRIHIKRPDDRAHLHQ
Assay: co-IP; HEK293 cells transfected with SLC7A11 wild type, MT-1 or MT-2 and KCTD10 ('indicated plasmids'), IP-IB (Fig. 2D)

Row | binding | Substance
1 | binds | MT-1: SLC7A11-1~470 (from UniProt Q9UPY5 1-470) (domain or fragment)
2 | no binding | MT-2: SLC7A11-44~501 (from UniProt Q9UPY5 44-501) (domain or fragment)
